Patent US20260137819A1 (Radionetics Oncology, Inc., priority 2022, published 2026)

How the values were obtained:
[1] = general procedure: Fmoc solid-phase peptide synthesis; Rink amide resin (100-200 mesh, 0.62 mmol/g); 2-chlorotrityl chloride resin (1.1 mmol/g); Wang resin; PyBOP/DIPEA; conditions: for step yield: late stage modification step
[2] = general procedure: Fmoc solid-phase peptide synthesis; CTC resin; PyBOP/DIPEA; conditions: whole synthesis
[3] = general procedure: Fmoc solid-phase peptide synthesis; Rink amide resin; PyBOP/DIPEA; conditions: whole synthesis
[4] = scale of the general procedure 100 mg resin/tube, total 5 tubes

Substance “3-amino-N-(14-((3-(1-(3,5-dichlorophenyl)-3-(3,3-dimethylmorpholine-4-carbonyl)-7-methoxy-1,4-dihydrochromeno[4,3-c]pyrazol-8-yl)phenyl)amino)-3,6,9,12-tetramethyl-2,5,8,11, 14-pentaoxo-3,6,9,12-tetraazatetradecyl)-N-methylpropanamide” has a step yield [1] of 61%.
In the case of “1-(9H-fluoren-9-yl)-8,11,14,17,20-pentamethyl-3,7,10,13,16,19-hexaoxo-2-oxa-4,8,11,14,17.20-hexaazadocosan-22-oic acid”, the isolated mass [2] was 5.1183 g, the isolated yield ([2]; overall, scale of the general procedure 100 mg resin/tube, total 5 tubes) was “overall yield 15.74%” and the “final purity (method not given)” value [2, 4] was 98.5% purity.
“3-amino-N-(14-((5-(1-(3,5-difluorophenyl)-3-(3,3-dimethylmorpholine-4-carbonyl)-7-methoxy-1,4-dihydrochromeno[4,3-c]pyrazol-8-yl) pyridin-3-yl)amino)-3,6,9,12-tetramethyl-2,5,8,11,14-pentaoxo-3,6,9,12-tetraazatetradecyl)-N-methylpropanamide” showed a step yield [1] of 92%.
Work on “indium (III) 2,2′,2″-(10-(1-((3-(1-(3,5-dichlorophenyl)-3-(3,3-dimethylmorpholine-4-carbonyl)-7-methoxy-1,4-dihydrochromeno[4,3-c]pyrazol-8-yl)phenyl)amino)-3,6,9,12,15-pentamethyl-1,4,7,10, 13, 16,20-heptaoxo-3,6,9, 12, 15, 19-hexaazahenicosan-21-yl)-1,4, 7,10-tetraazacyclododecane-1,4,7-triyl)triacetate 1FA salt” yielded a step yield ([1]; 1FA salt) of 62%.
“(9H-fluoren-9-yl)methyl (1-((5-(1-(3,5-difluorophenyl)-3-(3,3-dimethylmorpholine-4-carbonyl)-7-methoxy-1,4-dihydrochromeno[4,3-c]pyrazol-8-yl) pyridin-3-yl)amino)-3,6,9, 12, 15-pentamethyl-1,4,7, 10, 13, 16-hexaoxo-3,6,9, 12, 15-pentaazaoctadecan-18-yl) carbamate” showed a conjugation yield ([1]; conjugation step) of 66.4%.
With “(4R,7R,10R,13R,16R)-4-(((R)-1-amino-1-oxopropan-2-yl) carbamoyl)-10-(4-(4((3-(1-(3,5-dichlorophenyl)-3-(3,3-dimethylmorpholine-4-carbonyl)-7-methoxy-1,4-dihydrochromeno|4,3-clpyrazol-8-yl)phenyl)amino)-4-oxobutanamido)butyl)-7,13-dimethyl-6,9,12,15-tetraoxo-16-((R)-2-(2-(4,7,10-tris(carboxymethyl)-1,4,7,10-tetraazacyclododecan-1-yl)acetamido) propanamido)-5,8,11,14-tetraazanonadecanedioic acid” the isolated mass [3] was 193.8 mg, the “final purity (method not given)” value [3, 4] was 97.1% purity and the isolated yield [3, 4] was 29.1%.
